{
  "sequences": {"note": "By UniProt entry, the sequences of proteins in these tests, tags left out. Where a name states a change or a piece, a line headed by the entry shows the natural chain unless it says otherwise.", "UniProt P51450": "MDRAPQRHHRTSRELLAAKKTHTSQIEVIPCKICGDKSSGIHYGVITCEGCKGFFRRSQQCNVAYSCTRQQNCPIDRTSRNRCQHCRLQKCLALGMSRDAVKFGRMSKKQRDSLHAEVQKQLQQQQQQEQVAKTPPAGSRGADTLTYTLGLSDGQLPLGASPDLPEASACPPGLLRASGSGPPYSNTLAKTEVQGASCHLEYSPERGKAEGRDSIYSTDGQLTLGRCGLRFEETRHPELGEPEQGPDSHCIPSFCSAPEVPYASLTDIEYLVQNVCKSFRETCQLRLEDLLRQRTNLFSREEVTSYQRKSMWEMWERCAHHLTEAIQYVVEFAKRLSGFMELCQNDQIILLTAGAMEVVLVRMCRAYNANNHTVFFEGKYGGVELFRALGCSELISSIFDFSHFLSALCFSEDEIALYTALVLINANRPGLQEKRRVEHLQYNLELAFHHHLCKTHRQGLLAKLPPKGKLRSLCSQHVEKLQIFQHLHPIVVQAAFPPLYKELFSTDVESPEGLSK"},
  "source": "PubChem BioAssay AID2551",
  "about": "(National Center for Advancing Translational Sciences (NCATS), 2010)",
  "note": "Out of some 310,000 compounds screened, about 17,000 (5.5%) were called active. The shares of active, inactive and inconclusive entries below differ from those in the screen. Calls follow the shape of the dose curve; as a rule, active = well fitted inhibition curve with a large enough effect; inconclusive = small, poorly fitted or top-dose-only effect, or effect the other way; inactive = no such curve, though single readings can be large or run the other way. Where the call is inconclusive, the potency comes from a doubtful curve fit. % is scaled to controls: 0 for no effect and ±100 for the full control effect; potency is read from the fitted curve at half-maximal effect.",
  "data": [
    {"biological_target": "Nuclear receptor ROR-gamma (Mus musculus) (UniProt P51450)", "experiment": "qHTS for inhibitors of ROR gamma transcriptional activity; also: nearly all actives have a fitted effect of over 60% in size", "conditions": "Drosophila S2 Gal4-RORgamma UAS-luciferase reporter, 20 h; activity change, negative = inhibition: at 53.6 µM (top of the series)", "how_it_was_run": "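Schneider cells (Drosophila), stable Gal4 DBD–ROR gamma + UAS-luc; 1 hr cmpd preincubation; Cu2+ induction 700 uM final; 20 hr ambient; luminescence.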", "values": [
      {"smiles": "O=C(COC(=O)CN1C(=O)C2CCCCC2C1=O)Nc1cc(S(=O)(=O)N2CCOCC2)ccc1Cl", "note": "(stereo not drawn)", "Potency": "inconclusive: 31.6 µM [activator, single point]"},
      {"smiles": "Cn1nc(-c2ccc(Cl)cc2)nc2c(=O)n(C)c(=O)nc1-2", "Potency": "inconclusive: 22.4 µM [inhibitor, single point]"},
      {"smiles": "O=C(N/N=C/c1ccc([N+](=O)[O-])o1)c1ccc(O)cc1", "Potency": "active: 11.2 µM"},
      {"smiles": "CCN(CC)S(=O)(=O)c1ccc(N2CCc3ccccc3C2)nc1", "Potency": "inconclusive: 15.8 µM [activator, partial curve]"},
      {"smiles": "COc1ccc(N=C2SC(CC(=O)Nc3ccccc3F)C(=O)N2Cc2ccco2)cc1", "note": "(stereo not drawn)", "Potency": "inconclusive: 6.31 µM [activator, full curve, poor fit]"},
      {"smiles": "C/C(=N/Nc1ccc([N+](=O)[O-])cc1)c1c[nH]c2ccccc12", "Potency": "inconclusive: 11.2 µM [activator, partial curve]"},
      {"smiles": "COc1ccc(-c2nc3ccc(C(=O)NCCCN4CCOCC4)cc3nc2-c2ccc(OC)cc2)cc1", "Potency": "inconclusive: 0.158 µM [inhibitor, full curve, poor fit]"},
      {"smiles": "Cc1ccc2c(c1)c(C1=NC(=S)NC1=O)c(O)n2C", "activity change, negative = inhibition": "inactive: 4.19%"},
      {"smiles": "COc1ccc(N(C)S(=O)(=O)c2ccc(Cl)c(C(=O)NCCc3ccc(Cl)cc3)c2)cc1", "Potency": "inconclusive: 17.8 µM [activator, single point]"},
      {"smiles": "CN(C)S(=O)(=O)c1cccc(C(=O)NCCOC(=O)c2cc(F)c(F)cc2Cl)c1", "activity change, negative = inhibition": "inactive: 15%"},
      {"smiles": "O=[N+]([O-])/C=C\\c1ccc(N2CCCC2)c(F)c1", "Potency": "inconclusive: 20 µM [inhibitor, single point]"},
      {"smiles": "Cc1ccc(C)n1-c1cccc(C(=O)O)c1", "activity change, negative = inhibition": "inactive: -15.3% [at 0.365 µM]"},
      {"smiles": "O=C(O)/C=C/c1cn(-c2ccccc2)nc1-c1ccc2c(c1)OCCO2", "Potency": "inconclusive: 31.6 µM [activator, single point]"},
      {"smiles": "CCCCCOC(=O)NCC(O)c1ccccc1", "note": "(stereo not drawn)", "Potency": "inconclusive: 39.8 µM [activator, partial curve, poor fit]"},
      {"smiles": "O=C(N/N=C/c1cc(Cl)ccc1O)c1ccc(Br)cc1", "Potency": "active: 2.82 µM"},
      {"smiles": "CCc1ccc(C2=NN(CCC(=O)NC(C)CCc3ccccc3)C(=O)CC2)cc1", "note": "(stereo not drawn)", "Potency": "inconclusive: 12.6 µM [activator, single point]"},
      {"smiles": "CCCCOc1ccc(-c2nnn(CC(=O)NCCc3c[nH]c4ccccc34)n2)cc1", "Potency": "inconclusive: 14.1 µM [activator, single point]"},
      {"smiles": "CCOC(=O)c1ccn(-c2nc(-c3ccco3)cc(C(F)(F)F)n2)n1", "Potency": "inconclusive: 11.2 µM [activator, partial curve]"}
    ]}
  ]
}
